{"source": "PubChem BioAssay AID1259405 (NCATS, 2018)", "assay": "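Knock-downs that lift recombinant protein yield in hamster ovary cells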 (primary screen)", "cells": "Chinese hamster CHO-K1 ovary cells with stable secreted eGFP expression", "knock-down reagent": "single siRNA against mouse genes, 0.8 pmol siRNA per well (2 µl of 400 nM stock)", "timing": "3 days", "measurement": "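Percent of the per-plate non-targeting control median for intracellular GFP per well by laser scanning cytometry and for cell viability by ATP luminescence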", "reading the numbers": "GFP, % of control: higher = more GFP per well, higher productivity; viability (ATP), % of control: higher = more viable cells (more ATP)", "call rule": "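Called active when intracellular GFP, relative to negative control, is at or above 120%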", "note": "Shown is a random part of about 50,000 deposited reagents. Of all reagents, about 4,000 (8%) were called active. 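Mouse siRNA library applied to hamster cells; one well for each siRNA.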 The numbers tell different reagents against one gene apart."}
The opening 2 entries, to show the layout:
{"gene knocked down": "Slc25a26", "siRNA no.": 1, "GFP, % of control": 36.7, "viability (ATP), % of control": 43.3, "activity call": "inactive"}
{"gene knocked down": "Slc25a26", "siRNA no.": 2, "GFP, % of control": 86.7, "viability (ATP), % of control": 95.6, "activity call": "inactive"}

Main list, from the first entry:
{"gene knocked down": "Slc25a26", "siRNA no.": 1, "GFP, % of control": 36.7, "viability (ATP), % of control": 43.3, "activity call": "inactive"}
{"gene knocked down": "Slc25a26", "siRNA no.": 2, "GFP, % of control": 86.7, "viability (ATP), % of control": 95.6, "activity call": "inactive"}
{"gene knocked down": "Slc25a26", "siRNA no.": 3, "GFP, % of control": 18.1, "viability (ATP), % of control": 11.1, "activity call": "inactive"}
{"gene knocked down": "Ubqln3 (ubiquilin 3)", "siRNA no.": 1, "GFP, % of control": 52, "viability (ATP), % of control": 48.7, "activity call": "inactive"}
{"gene knocked down": "Ubqln3 (ubiquilin 3)", "siRNA no.": 2, "GFP, % of control": 71.9, "viability (ATP), % of control": 105, "activity call": "inactive"}
{"gene knocked down": "Ubqln3 (ubiquilin 3)", "siRNA no.": 3, "GFP, % of control": 54.1, "viability (ATP), % of control": 98.1, "activity call": "inactive"}
{"gene knocked down": "Metap1 (methionyl aminopeptidase 1)", "siRNA no.": 1, "GFP, % of control": 109, "viability (ATP), % of control": 80, "activity call": "inactive"}
{"gene knocked down": "Metap1 (methionyl aminopeptidase 1)", "siRNA no.": 2, "GFP, % of control": 94.1, "viability (ATP), % of control": 89.8, "activity call": "inactive"}
{"gene knocked down": "Metap1 (methionyl aminopeptidase 1)", "siRNA no.": 3, "GFP, % of control": 70.6, "viability (ATP), % of control": 84.6, "activity call": "inactive"}
{"gene knocked down": "Fbxo48 (F-box protein 48)", "siRNA no.": 1, "GFP, % of control": 70.8, "viability (ATP), % of control": 70.2, "activity call": "inactive"}
{"gene knocked down": "Fbxo48 (F-box protein 48)", "siRNA no.": 2, "GFP, % of control": 53.6, "viability (ATP), % of control": 81.3, "activity call": "inactive"}
{"gene knocked down": "Fbxo48 (F-box protein 48)", "siRNA no.": 3, "GFP, % of control": 8.6, "viability (ATP), % of control": 19.9, "activity call": "inactive"}
{"gene knocked down": "Prodh2 (proline dehydrogenase (oxidase) 2)", "siRNA no.": 1, "GFP, % of control": 109, "viability (ATP), % of control": 56.7, "activity call": "inactive"}
{"gene knocked down": "Prodh2 (proline dehydrogenase (oxidase) 2)", "siRNA no.": 2, "GFP, % of control": 38.3, "viability (ATP), % of control": 52.9, "activity call": "inactive"}
{"gene knocked down": "Prodh2 (proline dehydrogenase (oxidase) 2)", "siRNA no.": 3, "GFP, % of control": 41.9, "viability (ATP), % of control": 39.2, "activity call": "inactive"}
{"gene knocked down": "Rassf8", "siRNA no.": 1, "GFP, % of control": 50.7, "viability (ATP), % of control": 28.5, "activity call": "inactive"}
{"gene knocked down": "Rassf8", "siRNA no.": 2, "GFP, % of control": 84.1, "viability (ATP), % of control": 89.9, "activity call": "inactive"}
{"gene knocked down": "Rassf8", "siRNA no.": 3, "GFP, % of control": 128, "viability (ATP), % of control": 148, "activity call": "active"}
{"gene knocked down": "Lep (leptin)", "siRNA no.": 1, "GFP, % of control": 101, "viability (ATP), % of control": 76, "activity call": "inactive"}
{"gene knocked down": "Lep (leptin)", "siRNA no.": 2, "GFP, % of control": 94.3, "viability (ATP), % of control": 84.1, "activity call": "inactive"}
{"gene knocked down": "Lep (leptin)", "siRNA no.": 3, "GFP, % of control": 118, "viability (ATP), % of control": 103, "activity call": "inactive"}
{"gene knocked down": "Fbln2 (fibulin 2)", "siRNA no.": 1, "GFP, % of control": 104, "viability (ATP), % of control": 68.5, "activity call": "inactive"}
{"gene knocked down": "Fbln2 (fibulin 2)", "siRNA no.": 2, "GFP, % of control": 115, "viability (ATP), % of control": 101, "activity call": "inactive"}
{"gene knocked down": "Fbln2 (fibulin 2)", "siRNA no.": 3, "GFP, % of control": 118, "viability (ATP), % of control": 63, "activity call": "inactive"}
{"gene knocked down": "Ndufaf1 (NADH:ubiquinone oxidoreductase complex assembly factor 1)", "siRNA no.": 1, "GFP, % of control": 57, "viability (ATP), % of control": 70.9, "activity call": "inactive"}
{"gene knocked down": "Ndufaf1 (NADH:ubiquinone oxidoreductase complex assembly factor 1)", "siRNA no.": 2, "GFP, % of control": 59.1, "viability (ATP), % of control": 64.8, "activity call": "inactive"}
{"gene knocked down": "Ndufaf1 (NADH:ubiquinone oxidoreductase complex assembly factor 1)", "siRNA no.": 3, "GFP, % of control": 101, "viability (ATP), % of control": 57.1, "activity call": "inactive"}
{"gene knocked down": "Psmg2 (proteasome (prosome, macropain) assembly chaperone 2)", "siRNA no.": 1, "GFP, % of control": 81.6, "viability (ATP), % of control": 98.1, "activity call": "inactive"}
{"gene knocked down": "Psmg2 (proteasome (prosome, macropain) assembly chaperone 2)", "siRNA no.": 2, "GFP, % of control": 103, "viability (ATP), % of control": 96.3, "activity call": "inactive"}
{"gene knocked down": "Psmg2 (proteasome (prosome, macropain) assembly chaperone 2)", "siRNA no.": 3, "GFP, % of control": 141, "viability (ATP), % of control": 111, "activity call": "active"}
{"gene knocked down": "Taf11 (TATA-box binding protein associated factor 11)", "siRNA no.": 1, "GFP, % of control": 96.8, "viability (ATP), % of control": 110, "activity call": "inactive"}
{"gene knocked down": "Taf11 (TATA-box binding protein associated factor 11)", "siRNA no.": 2, "GFP, % of control": 85.6, "viability (ATP), % of control": 70.8, "activity call": "inactive"}
{"gene knocked down": "Taf11 (TATA-box binding protein associated factor 11)", "siRNA no.": 3, "GFP, % of control": 58, "viability (ATP), % of control": 86.4, "activity call": "inactive"}
{"gene knocked down": "Or1d2 (olfactory receptor family 1 subfamily D member 2)", "siRNA no.": 1, "GFP, % of control": 24.3, "viability (ATP), % of control": 21.3, "activity call": "inactive"}
{"gene knocked down": "Or1d2 (olfactory receptor family 1 subfamily D member 2)", "siRNA no.": 2, "GFP, % of control": 87.7, "viability (ATP), % of control": 91.7, "activity call": "inactive"}
{"gene knocked down": "Or1d2 (olfactory receptor family 1 subfamily D member 2)", "siRNA no.": 3, "GFP, % of control": 89.5, "viability (ATP), % of control": 68.3, "activity call": "inactive"}
{"gene knocked down": "Ghrh (growth hormone releasing hormone)", "siRNA no.": 1, "GFP, % of control": 69.3, "viability (ATP), % of control": 52.3, "activity call": "inactive"}
{"gene knocked down": "Ghrh (growth hormone releasing hormone)", "siRNA no.": 2, "GFP, % of control": 25.5, "viability (ATP), % of control": 18.1, "activity call": "inactive"}
{"gene knocked down": "Ghrh (growth hormone releasing hormone)", "siRNA no.": 3, "GFP, % of control": 103, "viability (ATP), % of control": 61, "activity call": "inactive"}
{"gene knocked down": "Prf1 (perforin 1 (pore forming protein))", "siRNA no.": 1, "GFP, % of control": 77, "viability (ATP), % of control": 70.1, "activity call": "inactive"}
{"gene knocked down": "Prf1 (perforin 1 (pore forming protein))", "siRNA no.": 2, "GFP, % of control": 100, "viability (ATP), % of control": 61.2, "activity call": "inactive"}
{"gene knocked down": "Prf1 (perforin 1 (pore forming protein))", "siRNA no.": 3, "GFP, % of control": 36.8, "viability (ATP), % of control": 53.4, "activity call": "inactive"}
